Data: patent US4237046 (dated 1980)

Test: general procedure: solution-phase peptide synthesis; p-nitrophenyl and pentachlorophenyl active esters with HOBt/DIEA; DCC/HOBt for f
Conditions: coupling step, di-trifluoroacetate salt

| Substance | step yield | step yield (total yield) |
| --- | --- | --- |
| Benzyloxycarbonyl-L-alanyl-L-valyl-N^ε -t-butyloxycarbonyl-L-lysyl-N^ε -t-butyloxycarbonyl-L-lysyl-L-tyrosyl-L-leucyl-L-asparaginyl-O-t-butyl-L-seryl-L-valyl-L-leucyl-L-threoninamide | 84% |  |
| Benzyloxycarbonyl-L-asparaginyl-O-t-butyl-L-seryl-L-valyl-L-leucyl-L-threoninamide | 91% |  |
| Benzyloxycarbonyl-L-leucyl-L-asparaginyl-O-t-butyl-L-seryl-L-valyl-L-leucyl-L-threoninamide | 95% |  |
| Benzyloxycarbonyl-L-tyrosyl-L-leucyl-L-asparaginyl-O-t-butyl-L-seryl-L-valyl-L-leucyl-L-threoninamide | 92% |  |
| Benzyloxycarbonyl-L-valyl-N^ε -t-butyloxycarbonyl-L-lysyl-N^ε -t-butyloxycarbonyl-L-lysyl-L-tyrosyl-L-leucyl-L-asparaginyl-O-t-butyl-L-seryl-L-valyl-L-leucyl-L-threoninamide | 81% |  |
| N-Benzylocycarbonyl-O-t-butyl-L-seryl-L-valyl-L-leucyl-L-threonin-amide | 86% |  |
| N^α -Benzyloxycarbonyl-N^ε -t-butyloxycarbonyl-L-lysyl-L-tyrosyl-L-leucyl-L-asparaginyl-O-t-butyl-L-seryl-L-valyl-L-leucyl-L-threoninamide | 98% |  |
| N^α -Benzyloxycarbonyl-N^ε -t-butyloxycarbonyl-L-lysyl-N^ε -t-butyloxy-carbonyl-L-lysyl-L-tyrosyl-L-leucyl-L-asparaginyl-O-t-butyl-L- seryl-L-valyl-L-leucyl-L-threoninamide | 97% |  |
| t-Butyloxycarbonyl-L-glutaminyl-L-methionyl-L-alanyl-L-valyl-N^ε -benzyloxycarbonyl-L-lysine benzyl ester | 93% |  |
| t-Butyloxycarbonyl-L-methionyl-L-alanyl-L-valyl-N^ε -benzyloxycarbonyl-L-lysine benzyl ester | 93% |  |
| t-Butyloxycarbonyl-t-glutaminyl-L-methionyl-L-alanyl-L-valyl-N^ε -t-butyloxycarbonyl-L-lysinamide | 87% |  |
| tert-Butyloxycarbonyl-L-glutaminyl-L-methionyl-L-alanyl-L-valine tert-butyl ester |  | 87% |
